In PubChem BioAssay AID493014 (National Center for Advancing Translational Sciences (NCATS), 2011):
The other results are listed elsewhere or left out. These are further read-outs of the screen, such as a control signal, another cell line or another target. No call is given for them. The list favours compounds with an active or inconclusive main result. Words in brackets tell the shape of the fitted curve; partial curves, single points and poor fits give uncertain potencies.

Experiment: qHTS Assay to Find Inhibitors of Chronic Active B-Cell Receptor Signaling
Conditions: ABC-DLBCL IkBa-CBG/CBR reporter, luminescence ratio (green luciferase fused to IkBa over red control in TMD8 lymphoma cells), 4 h
Procedure, shortened: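 TMD8 ABC-DLBCL cells carrying doxycycline-inducible green luciferase fused to IkappaBalpha plus unfused red luciferase were exposed to compounds (up to 46 uM) for 4 hrs at 37C. Activity came from the overlap-corrected green/red luminescence ratio.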

[1] = measured here: CBR red luminescence, cell number
[2] = measured here: IkBa-CBG green luminescence

SMILES | AC50 [1] | AC50 [2]
Cc1ccc(NC(=O)c2cc(S(=O)(=O)N3CCc4ccccc43)ccc2F)cc1Cl | 7.94 µM [falling, partial curve, poor fit] | –
COc1ccc(-c2nc3ncccc3o2)cc1NC(=O)c1ccco1 | 1.58 µM [rising, full curve, poor fit] | –
O=C(Nc1cc2c(cc1Br)OCCO2)c1ccc(=O)[nH]c1 | 23.1 µM [rising, single point] | –
C/C=C/C(=O)OCC(=O)Nc1cc([N+](=O)[O-])ccc1Cl | 2.06 µM [rising, full curve, poor fit] | –
C=CCc1cccc(/C=N/NC(=O)c2ccccc2Br)c1O | 1.12 µM [falling, full curve] | –
COc1ccc(F)c(-c2nc(CN3CCC(c4ccccc4)CC3)c(C)o2)c1 | 10 µM [falling, partial curve, poor fit] | –
Cc1ccc2cc3c(N)c(C(=O)Nc4c(C)[nH]c(=O)[nH]c4=O)sc3nc2c1 | 0.651 µM [falling, partial curve, poor fit] | –
CC(=O)c1cnc2c(-c3ccccc3)c(C)nn2c1C | 10.3 µM [rising, partial curve, poor fit] | –
CCCCSc1nsc(NC(C)=O)n1 | 1.26 µM [rising, partial curve, poor fit] | –
CCOC(=O)c1sc(Nc2nc3ccc(OC)cc3s2)cc1C | 29.1 µM [falling, single point] | –
CN(Cc1ccc(F)cc1)C(=O)COc1ccccc1-c1ccccc1 | 6.51 µM [falling, single point] | –
CCOC(=O)c1nnc(-c2cccs2)nc1Oc1ccc(Cl)cc1 | 9.2 µM [falling, partial curve, poor fit] | –
Cc1cc(NC(=O)c2cccc(S(=O)(=O)N(C)C)c2)n(-c2ccccn2)n1 | 6.51 µM [falling, single point] | –
CC(C)(C)c1ccc(C(=O)O)c(C(=O)c2ccc(C(=O)O)cc2)c1 | 3.16 µM [rising, single point] | –
COC(=O)c1ccc(N2CCOCC2)c(NC(=O)Nc2cccc(OC)c2)c1 | 23.1 µM [falling, single point] | –
COc1ccc(NC(=O)CN(C)S(=O)(=O)c2ccc3c(c2)OCCO3)c2ncccc12 | 31.6 µM [rising, single point] | –
COc1ccccc1C(=O)Nc1sc(C(=O)N2CCCC2)c(C)c1C#N | 7.08 µM [falling, partial curve, poor fit] | –
C=C(C)CNC(=S)N/N=C/c1c(F)cccc1F | 25.1 µM [falling, single point] | 25.1 µM [falling, single point]
COc1ccc2c(c1)C(C1=C(O)CC(C)(C)CC1=O)C1=C(CC(C)(C)CC1=O)O2 (stereo not drawn) | 9.2 µM [rising, single point] | –
CCc1ccccc1N(CC)C(=O)CCc1nc(-c2ccc(C)cc2)no1 | 12.6 µM [falling, partial curve, poor fit] | –

Of the compounds above, two contain four or more nitrogen atoms.
SMILES | AC50 [1] | AC50 [2]
Cc1ccc2cc3c(N)c(C(=O)Nc4c(C)[nH]c(=O)[nH]c4=O)sc3nc2c1 | 0.651 µM [falling, partial curve, poor fit] | –
Cc1cc(NC(=O)c2cccc(S(=O)(=O)N(C)C)c2)n(-c2ccccn2)n1 | 6.51 µM [falling, single point] | –

The results go on.

SMILES | AC50 [1] | AC50 [2]
Cn1c(=O)c2cc(S(=O)(=O)NC(C(=O)Nc3cccnc3)c3ccccc3)ccc2n(C)c1=O (stereo not drawn) | 2.91 µM [falling, single point] | –
CSc1ccc(-c2nc(O)c3cnccn23)cc1 | 0.562 µM [rising, full curve, poor fit] | –
Cc1ccc(C(=O)C2CCN(CC(=O)NC3CCCCC3)CC2)cc1 | 0.708 µM [rising, full curve, poor fit] | –
CCN(CC)C(=O)[C@H]1C[C@H](CC(=O)NCCc2ccccn2)C(=O)N2CCc3c([nH]c4ccc(Cl)cc34)[C@]12C | 20.6 µM [rising, single point] | –
O=C(O)c1ccc(Nc2nc3ccccc3nc2NS(=O)(=O)c2cccs2)cc1 | 0.891 µM [falling, full curve] | –
COc1ccc(O)c(C(=O)c2cnn(-c3ccccc3)c2)c1 | 4.47 µM [falling, partial curve] | –
CCOc1ccc(NC(=O)CN2CCN(CC(=O)Nc3cc(OC)cc(OC)c3)CC2)cc1 | 13 µM [rising, partial curve, poor fit] | 16.4 µM [falling, single point]
NC(=O)c1ccc(NC(=O)c2cnc3ccccc3n2)cc1 | 6.31 µM [rising, single point] | –
Cc1ccc(Cl)c2sc(NC(=O)C3CC3)nc12 | 35.5 µM [falling, partial curve, poor fit] | –
Fc1cccc(Nc2ncnc3sc4c(c23)CCC4)c1 | 1.64 µM [rising, full curve] | –
CCCCCCCc1nc2nc(C)c(Br)c(=O)n2[nH]1 | 3.16 µM [falling, full curve] | –
NC(=S)NN=C1c2ccccc2-c2ccccc21 | 20 µM [falling, single point] | 11.2 µM [falling, partial curve]
COc1ccc(/C=C2\N=C3CCCN3C2=O)cc1 | 3.55 µM [rising, full curve, poor fit] | –
CCOC(=O)C(C)Sc1nnc(NC(=O)c2ccc3c(c2)OCO3)s1 (stereo not drawn) | 35.5 µM [falling, single point] | –
Cc1cccnc1NC(=S)Nc1ccc(Cl)c(Cl)c1 | 12.6 µM [rising, partial curve] | –
COc1ccc2cc(S(=O)(=O)N3CCCCC3)ccc2c1S(=O)(=O)N1CCCCC1 | 6.51 µM [rising, single point] | –
C=CCn1c(COc2cccc3ccc(C)nc23)nnc1SCC(N)=O | 2.91 µM [falling, full curve, poor fit] | –
Cc1ccc(C)c(NC(=O)c2cc(S(=O)(=O)N3CCCCCC3)ccc2F)c1 | 14.1 µM [rising, partial curve, poor fit] | –
CC(C)c1[nH]nc2c1C(c1cccnc1)C(C#N)=C(N)O2 (stereo not drawn) | 12.6 µM [falling, partial curve, poor fit] | –
O=S(=O)(c1ccc(Cl)cc1Br)N1CCCCC1 | 6.51 µM [rising, single point] | –
